PubChem BioAssay AID743121 – NCATS | 2013
Assay: 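Knock-downs that sensitise breast cancer cells to camptothecin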 (primary screen). Cell system: MDA-MB-231 cells, a human breast cancer line. Reagents: single siRNA against human genes, 20 nM siRNA (0.8 pmol per well). Timing: 120 h (drug added 48 h after transfection, read 72 h later). Challenge: camptothecin 20 nM (about EC30) for 72 h; vehicle 0.1% DMSO in parallel plates. Read-out: 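CellTiter-Glo ATP signal, scaled to control siRNA as percent viability; sensitisation given as log2 of untreated divided by camptothecin-treated viability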. Direction: log2 vehicle/camptothecin viability: higher = stronger sensitisation to camptothecin; viability with camptothecin and viability without drug: higher = more viable cells. Hit rule: 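Active genes have an RSA gene-level p-value below 0.001, computed from the ratios of their separate siRNAs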.
The deposit covers about 26,000 reagents; shown is an unselected part. In the full data, 167 (0.63%) got an active call. 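Calls are per gene from RSA p-values that are not deposited; an individual active-marked siRNA can sensitise only weakly.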 Reagents against one gene are numbered here.

no.	gene	reagent	log2 vehicle/camptothecin viability	viability with camptothecin (% of control)	viability without drug (% of control)	Outcome
1	ATAD2	1	0.233	68.5	80.5	inactive
2	ATAD2	2	-0.0968	101	94.4	inactive
3	ATAD2	3	-0.113	74.8	69.1	inactive
4	ATAD2	4	-0.16	13.1	11.7	inactive
5	TNPO1	1	-0.326	98.3	78.4	inactive
6	TNPO1	2	-0.0757	69.6	66.1	inactive
7	TNPO1	3	-0.0515	120	116	inactive
8	TNPO1	4	0.154	52.2	58.1	inactive
9	WWOX	1	-0.407	94	70.9	inactive
10	WWOX	2	-0.135	98.1	89.4	inactive
11	WWOX	3	-0.326	125	99.7	inactive
12	WWOX	4	0.317	68.9	85.9	inactive
13	WWOX	5	0.271	58.3	70.4	inactive
14	WWOX	6	-0.166	24.6	21.9	inactive
15	WWOX	7	-0.335	86.6	68.7	inactive
16	WWOX	8	-0.205	97.8	84.8	inactive
17	CCL4	1	-0.137	106	96	inactive
18	CCL4	2	-0.263	90.1	75.1	inactive
19	CCL4	3	-0.239	37	31.3	inactive
20	CCL4	4	0.193	73.3	83.8	inactive
21	CCL4	5	-0.15	48.9	44	inactive
22	CCL4	6	-0.477	95.5	68.6	inactive
23	CCR8	1	-0.364	46	35.8	inactive
24	CCR8	2	0.146	92.9	103	inactive
25	APPBP2	1	-0.0989	105	98.2	inactive
26	APPBP2	2	-0.134	68.3	62.2	inactive
27	APPBP2	3	-0.188	41.4	36.3	inactive
28	APPBP2	4	-0.474	53.5	38.5	inactive
29	PKLR	1	0.367	68.9	88.8	inactive
30	PKLR	2	0.116	73.5	79.7	inactive
31	PKLR	3	0.406	8.87	11.8	inactive
32	PKLR	4	-0.102	99.2	92.4	inactive
33	METTL6	1	-0.208	93.8	81.3	inactive
34	METTL6	2	-0.0769	95.8	90.8	inactive
35	METTL6	3	0.55	45.8	67.1	inactive
36	RTP2	1	-0.172	98.1	87.1	inactive
37	RTP2	2	-0.276	64.3	53.1	inactive
38	RTP2	3	-0.33	89	70.8	inactive
39	GPR63	1	-0.105	120	112	inactive
40	GPR63	2	0.537	40.5	58.8	inactive
41	GPR63	3	-0.19	109	95.8	inactive
42	GPR63	4	-0.364	11.4	8.83	inactive
43	SLC6A10P	1	-0.0916	47.4	44.5	inactive
44	SLC6A10P	2	-0.4	77.9	59	inactive
45	SLC6A10P	3	0.0925	94.6	101	inactive
46	SLC6A10P	4	0.0983	80.5	86.1	inactive
